Source: patent US20200231691A1
No constants are given. Whether binding was seen depends on the method and setting. Some entries that bind do so weakly or less than the wild type.

Target: T1, murine EpCAM (murine) (UniProt Q99JW5)
T1 sequence: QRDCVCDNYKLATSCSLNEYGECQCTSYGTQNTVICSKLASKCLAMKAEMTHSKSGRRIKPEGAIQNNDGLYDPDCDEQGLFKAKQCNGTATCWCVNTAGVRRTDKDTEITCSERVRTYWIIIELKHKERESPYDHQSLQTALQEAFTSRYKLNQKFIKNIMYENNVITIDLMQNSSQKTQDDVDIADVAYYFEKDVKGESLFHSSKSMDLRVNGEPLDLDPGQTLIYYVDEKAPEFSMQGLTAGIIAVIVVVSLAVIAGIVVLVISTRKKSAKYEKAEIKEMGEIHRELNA
Experiment: flow cytometry, CT26muEpCAM cells

B1: monospecific, bivalent anti-murine EpCAM IgG (parental bivalent anti-muEpCAM antibody) (antibody, V domains shown)
VH: EVQLAESGGGLVQPGRSMKLSCAASGFTFSNFPMAWVRQAPTKGLEWVATISTSGGSTYYRDSVKGRFTISRDNAKSTLYLQMNSLRSEDTATYYCTRTLYILRVFYFDYWGQGVMVTVSS
VL: DIQMTQSPASLSASLGETVSIECLASEGISNDLAWYQQKSGKSPQLLIYATSRLQDGVPSRFSGSGSGTRYSLKISGMQPEDEADYFCQQSYKYPWTFGGGTKLELK
binding: binds
